Assay results published in publication PMC11597393.
No constants are given. Whether binding was seen depends on the method and setting. In cells and extracts the contact can be indirect. Some results given as binding are weak or reduced against the parent protein; the word gives no strength.

Amino acid sequences for entries named in this document (tags omitted). Residues count along the entry.
UniProt Q9QUK6, residues 26-835: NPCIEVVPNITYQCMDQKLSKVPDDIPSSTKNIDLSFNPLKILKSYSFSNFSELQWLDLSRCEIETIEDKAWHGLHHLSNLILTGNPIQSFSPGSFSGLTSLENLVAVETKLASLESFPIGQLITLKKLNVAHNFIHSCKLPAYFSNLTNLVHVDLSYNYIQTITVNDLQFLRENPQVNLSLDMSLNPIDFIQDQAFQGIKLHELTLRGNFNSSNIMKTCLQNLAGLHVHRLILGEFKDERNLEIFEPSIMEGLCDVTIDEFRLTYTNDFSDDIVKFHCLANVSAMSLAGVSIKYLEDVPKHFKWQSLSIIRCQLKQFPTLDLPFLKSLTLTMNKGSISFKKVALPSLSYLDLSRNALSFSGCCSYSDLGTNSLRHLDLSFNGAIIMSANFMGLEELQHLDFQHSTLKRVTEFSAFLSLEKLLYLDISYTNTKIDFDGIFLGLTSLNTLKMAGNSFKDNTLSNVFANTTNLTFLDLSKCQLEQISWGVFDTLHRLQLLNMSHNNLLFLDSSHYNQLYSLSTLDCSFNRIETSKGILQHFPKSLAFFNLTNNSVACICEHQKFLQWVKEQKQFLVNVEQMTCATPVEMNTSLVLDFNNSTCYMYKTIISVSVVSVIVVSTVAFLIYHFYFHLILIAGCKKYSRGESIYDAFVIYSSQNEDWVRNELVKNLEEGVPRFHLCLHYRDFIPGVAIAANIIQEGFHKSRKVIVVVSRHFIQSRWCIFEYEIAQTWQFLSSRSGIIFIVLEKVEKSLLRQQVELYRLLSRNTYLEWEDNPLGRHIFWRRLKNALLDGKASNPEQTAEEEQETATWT
UniProt P22366: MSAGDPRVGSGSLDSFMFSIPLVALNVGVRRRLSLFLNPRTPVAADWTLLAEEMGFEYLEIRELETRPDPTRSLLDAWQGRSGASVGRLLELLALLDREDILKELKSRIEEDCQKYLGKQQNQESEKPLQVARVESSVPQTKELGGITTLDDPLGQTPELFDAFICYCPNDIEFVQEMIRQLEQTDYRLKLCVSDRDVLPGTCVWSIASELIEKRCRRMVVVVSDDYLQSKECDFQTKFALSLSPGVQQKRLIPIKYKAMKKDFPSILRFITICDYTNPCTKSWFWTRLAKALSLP

Molecular target: Toll-like receptor 4 (mouse (endogenous in RAW 264.7)) (UniProt Q9QUK6)
Assay: co-IP; lysates of RAW 264.7 cells exposed to LPS and/or EPS-LM (50 and 200 µg/mL) for 24 h; anti-TLR4 antibody on Protein A+G magnetic beads, overnight at 4 °C; MyD88 and TLR4 detected by immunoblot

binding: binds
Substance: myeloid differentiation primary response gene 88 (from UniProt P22366 1-296)
